Taken from: PubChem BioAssay AID720505 (Drosophila RNAi Screening Center, 2013)

Screen: 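Fly regulators or components of the CRAC channel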 (primary screen)
System: Drosophila S2R+ cells
Reagents: long dsRNA against Drosophila genes
Treatment: thapsigargin (2 µM) in calcium-free buffer to empty internal stores, then 2 mM calcium added back
Measurement: 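Stores emptied by 2 µM thapsigargin without calcium, then 2 mM calcium re-added; fluo-4 fluorescence followed by FLIPR in 384-well plates, per-well averaged endpoint, raw; two screen passes, some wells retested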
Scale: calcium signal and retest calcium signal: higher = more calcium entry after store depletion
Call rule: 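Knock-downs counted as hits when calcium entry dropped relative to STIM1 positive and Rho1 negative controls present on each plate; roughly 1500 genes called, with reductions of differing size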
Calls: active = called as lowering calcium entry; inactive = not called
The deposit covers about 20,000 reagents; this is an unselected part of those that have a named target and a result. In the full data, about 2,100 (10%) are marked active. 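Raw plate signals without normalisation; calls rest on control-based scores that were not deposited; replicate 2 separates called from uncalled poorly.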 Unmarked entries are inactive. Names joined by + are all predicted targets of the reagent. Reagent sequences are not shown. Not given: the amount of reagent, the time to read-out.

Cpr57A + Obp57d [DRSC06708]
- calcium signal, replicate 1: 76.1 (active)
- calcium signal, replicate 2: 193

Cpr57A + Obp57d [DRSC22719]
- calcium signal, replicate 1: 175
- calcium signal, replicate 2: 215

CG11180 [DRSC06055]
- calcium signal, replicate 1: 132
- calcium signal, replicate 2: 81.8

CG17778 [DRSC18504]
- calcium signal, replicate 1: 63.9 (active)
- calcium signal, replicate 2: 75.1

Cyp312a1 (Cytochrome P450 312a1) [DRSC11128]
- calcium signal, replicate 1: 88.9
- calcium signal, replicate 2: 154

Rpt5 (Regulatory particle triple-A ATPase 5) [DRSC16842]
- calcium signal, replicate 1: 124
- calcium signal, replicate 2: 136

janB (janus B) [DRSC16973]
- calcium signal, replicate 1: 188
- calcium signal, replicate 2: 127

Polr2M (RNA polymerase II subunit M) [DRSC15513]
- calcium signal, replicate 1: 172
- calcium signal, replicate 2: 106

CG9117 [DRSC03141]
- calcium signal, replicate 1: 151
- calcium signal, replicate 2: 87.9

Continued, starting with the last 2 of the part before.
Polr2M (RNA polymerase II subunit M) [DRSC15513]
- calcium signal, replicate 1: 172
- calcium signal, replicate 2: 106

CG9117 [DRSC03141]
- calcium signal, replicate 1: 151
- calcium signal, replicate 2: 87.9

Ccp84Af [DRSC12591]
- calcium signal, replicate 1: 157
- calcium signal, replicate 2: 122

unc-4 [DRSC20381]
- calcium signal, replicate 1: 84.9
- calcium signal, replicate 2: 90.9
- retest calcium signal, replicate 1: 8833
- retest calcium signal, replicate 2: 144

unc-4 [DRSC22074]
- calcium signal, replicate 1: 109
- calcium signal, replicate 2: 289

CG13744 [DRSC06415]
- calcium signal, replicate 1: 116
- calcium signal, replicate 2: 128

CG11791 [DRSC14391]
- calcium signal, replicate 1: 142
- calcium signal, replicate 2: 188

RhoU [DRSC17803]
- calcium signal, replicate 1: 105
- calcium signal, replicate 2: 104

RhoU [DRSC17804]
- calcium signal, replicate 1: 108
- calcium signal, replicate 2: 87.5
- retest calcium signal, replicate 1: 6517
- retest calcium signal, replicate 2: 167

RhoU [DRSC22159]
- calcium signal, replicate 1: 100
- calcium signal, replicate 2: 212

RhoU [DRSC22396]
- calcium signal, replicate 1: 89.3
- calcium signal, replicate 2: 90.7

pst (pastrel) [DRSC11003]
- calcium signal, replicate 1: 120
- calcium signal, replicate 2: 170

LRP1 (LDL receptor protein 1) [DRSC07238]
- calcium signal, replicate 1: 151
- calcium signal, replicate 2: 140

Pp2B-14D (Protein phosphatase 2B at 14D) [DRSC20270]
- calcium signal, replicate 1: 56.4 (active)
- calcium signal, replicate 2: 127

Pp2B-14D (Protein phosphatase 2B at 14D) [DRSC23315]
- calcium signal, replicate 1: 117
- calcium signal, replicate 2: 161

E5 [DRSC16585]
- calcium signal, replicate 1: 95.9
- calcium signal, replicate 2: 174

E5 [DRSC23157]
- calcium signal, replicate 1: 86.4
- calcium signal, replicate 2: 148

CG5721 [DRSC06945]
- calcium signal, replicate 1: 162
- calcium signal, replicate 2: 113

BicD (Bicaudal D) [DRSC02006]
- calcium signal, replicate 1: 102
- calcium signal, replicate 2: 119

MED18 (Mediator complex subunit 18) [DRSC18549]
- calcium signal, replicate 1: 159
- calcium signal, replicate 2: 170

CG5815 [DRSC14135]
- calcium signal, replicate 1: 163
- calcium signal, replicate 2: 198
